{"source": "PubChem BioAssay AID1259308 (NCATS, 2017)", "assay": "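Genes whose loss raises luciferase production in HEK293 cells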 (primary screen)", "system": "human HEK293 embryonic kidney cells stably expressing firefly luciferase (HEK-CMV-Luc2-Hygro)", "knock-down reagent": "single siRNA against human genes, 0.8 pmol siRNA per well", "timing": "72 h", "detection": "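Luciferase light (ONE-Glo) measured on one replicate plate set and viability (CellTiter-Glo) on the other, scaled to a negative control siRNA, with robust z-scores and luciferase per cell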", "reading the numbers": "total luciferase, z-score: higher = more reporter protein produced", "active means": "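An siRNA counts as active if its total luciferase robust z-score exceeds 3; genes with two or more such siRNAs out of three were retested with fresh siRNAs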", "calls": "active = raised luciferase; inactive = no rise", "note": "This is an unselected part of about 59,000 deposited reagents. About 1,510 of them (2.6%) count as active. 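Calls use total luciferase alone and ignore viability, so some active siRNAs may act by altering cell number.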 The numbers tell different reagents against one gene apart. Not all columns of the deposit are shown. Reagent sequences are not shown."}
The first 2 entries, ahead of the listing:
{"target": "NYAP2", "reagent no.": 1, "total luciferase, z-score": 2.41, "call": "inactive"}
{"target": "NYAP2", "reagent no.": 2, "total luciferase, z-score": -0.12, "call": "inactive"}

Results, from the first entry:
{"target": "NYAP2", "reagent no.": 1, "total luciferase, z-score": 2.41, "call": "inactive"}
{"target": "NYAP2", "reagent no.": 2, "total luciferase, z-score": -0.12, "call": "inactive"}
{"target": "NYAP2", "reagent no.": 3, "total luciferase, z-score": 0.561, "call": "inactive"}
{"target": "RPLP1", "reagent no.": 1, "total luciferase, z-score": -2.01, "call": "inactive"}
{"target": "RPLP1", "reagent no.": 2, "total luciferase, z-score": -1.02, "call": "inactive"}
{"target": "RPLP1", "reagent no.": 3, "total luciferase, z-score": -2.16, "call": "inactive"}
{"target": "HTR1D", "reagent no.": 1, "total luciferase, z-score": -0.495, "call": "inactive"}
{"target": "HTR1D", "reagent no.": 2, "total luciferase, z-score": -0.0871, "call": "inactive"}
{"target": "HTR1D", "reagent no.": 3, "total luciferase, z-score": 0.00321, "call": "inactive"}
{"target": "SLC30A3", "reagent no.": 1, "total luciferase, z-score": 1.41, "call": "inactive"}
{"target": "SLC30A3", "reagent no.": 2, "total luciferase, z-score": -0.0548, "call": "inactive"}
{"target": "SLC30A3", "reagent no.": 3, "total luciferase, z-score": 0.153, "call": "inactive"}
{"target": "CLIC5", "reagent no.": 1, "total luciferase, z-score": -0.716, "call": "inactive"}
{"target": "CLIC5", "reagent no.": 2, "total luciferase, z-score": -0.934, "call": "inactive"}
{"target": "CLIC5", "reagent no.": 3, "total luciferase, z-score": 0.427, "call": "inactive"}
{"target": "ACP5", "reagent no.": 1, "total luciferase, z-score": 0.618, "call": "inactive"}
{"target": "ACP5", "reagent no.": 2, "total luciferase, z-score": 0.118, "call": "inactive"}
{"target": "ACP5", "reagent no.": 3, "total luciferase, z-score": -0.519, "call": "inactive"}
{"target": "MICAL2", "reagent no.": 1, "total luciferase, z-score": -0.4, "call": "inactive"}
{"target": "MICAL2", "reagent no.": 2, "total luciferase, z-score": -0.259, "call": "inactive"}
{"target": "MICAL2", "reagent no.": 3, "total luciferase, z-score": 0.249, "call": "inactive"}
{"target": "MICAL2", "reagent no.": 4, "total luciferase, z-score": -0.402, "call": "inactive"}
{"target": "MICAL2", "reagent no.": 5, "total luciferase, z-score": 0.663, "call": "inactive"}
{"target": "MICAL2", "reagent no.": 6, "total luciferase, z-score": 4.45, "call": "active"}
